Results are given in words; binding and its absence hold for the method and conditions named. In cells and extracts the contact can be indirect. These calls come from enrichment with a bait or labelling near it, and not all partners need be listed. Tags and fused reporters may be left off the sequences shown.
B1: MORC family CW-type zinc finger protein 4 (protein, UniProt Q8TE76 1-937)
chain: MLLYRGAPAGPGAPGCGLARPGGGPQAFGIRLSTMSPRYLQSNSSSHTRPFSAIAELLDNAVDPDVSARTVFIDVEEVKNKSCLTFTDDGCGMTPHKLHRMLSFGFTDKVIKKSQCPIGVFGNGFKSGSMRLGKDALVFTKNGGTLTVGLLSQTYLECVQAQAVIVPIVPFNQQNKKMIITEDSLPSLEAILNYSIFNRENDLLAQFDAIPGKKGTRVLIWNIRRNKNGKSELDFDTDQYDILVSDFDTEEKMTGGVTSELPETEYSLRAFCGILYMKPRMKIFLRQKKVTTQMIAKSLANVEYDTYKPTFTNKQVRITFGFSCKNSNQFGIMMYHNNRLIKSFEKVGCQVKPTRGEGVGVIGVIECNFLKPAYNKQDFEYTKEYRLTINALAQKLNAYWKEKTSQDNFETSTVARPIPKVPDQTWVQCDECLKWRKLPGKIDPSMLPARWFCYYNSHPKYRRCSVPEEQELTDEDLCLSKAKKQEQTVEEKKKMPMENENHQVFSNPPKILTVQEMAGLNNKTIGYEGIHSPSVLPSGGEESRSPSLQLKPLDSSVLQFSSKYKWILGEEPVEKRRRLQNEMTTPSLDYSMPAPYRRVEAPVAYPEGENSHDKSSSERSTPPYLFPEYPEASKNTGQNREVSILYPGAKDQRQGSLLPEELEDQMPRLVAEESNRGSTTINKEEVNKGPFVAVVGVAKGVRDSGAPIQLIPFNREELAERRKAVESWNPVPYSVASAAIPAAAIGEKARGYEESEGHNTPKLKNQRELEELKRTTEKLERVLAERNLFQQKVEELEQERNHWQSEFKKVQHELVIYSTQEAEGLYWSKKHMGYRQAEFQILKAELERTKEEKQELKEKLKETETHLEMLQKAQVSYRTPEGDDLERALAKLTRLRIHVSYLLTSVLPHLELREIGYDSEQVDGILYTVLEANHILD
B2: Desmocollin-1 (protein, UniProt Q08554 135-894)
chain: RWAPIPASLMENSLGPFPQHVQQIQSDAAQNYTIFYSISGPGVDKEPFNLFYIEKDTGDIFCTRSIDREKYEQFALYGYATTADGYAPEYPLPLIIKIEDDNDNAPYFEHRVTIFTVPENCRSGTSVGKVTATDLDEPDTLHTRLKYKILQQIPDHPKHFSIHPDTGVITTTTPFLDREKCDTYQLIMEVRDMGGQPFGLFNTGTITISLEDENDNPPSFTETSYVTEVEENRIDVEILRMKVQDQDLPNTPHSKAVYKILQGNENGNFIISTDPNTNEGVLCVVKPLNYEVNRQVILQVGVINEAQFSKAASSQTPTMCTTTVTVKIIDSDEGPECHPPVKVIQSQDGFPAGQELLGYKALDPEISSGEGLRYQKLGDEDNWFEINQHTGDLRTLKVLDRESKFVKNNQYNISVVAVDAVGRSCTGTLVVHLDDYNDHAPQIDKEVTICQNNEDFAVLKPVDPDGPENGPPFQFFLDNSASKNWNIEEKDGKTAILRQRQNLDYNYYSVPIQIKDRHGLVATHMLTVRVCDCSTPSECRMKDKSTRDVRPNVILGRWAILAMVLGSVLLLCILFTCFCVTAKRTVKKCFPEDIAQQNLIVSNTEGPGEEVTEANIRLPMQTSNICDTSMSVGTVGGQGIKTQQSFEMVKGGYTLDSNKGGGHQTLESVKGVGQGDTGRYAYTDWQSFTQPRLGEKVYLCGQDEEHKHCEDYVCSYNYEGKGSLAGSVGCCSDRQEEEGLEFLDHLEPKFRTLAKTCIKK
B3: Alpha-1,6-mannosylglycoprotein 6-beta-N-acetylglucosaminyltransferase B (protein, UniProt Q3V5L5 1-792)
chain: MITVNPDGKIMVRRCLVTLRPFRLFVLGIGFFTLCFLMTSLGGQFSARRLGDSPFTIRTEVMGGPESRGVLRKMSDLLELMVKRMDALARLENSSELHRAGGDLHFPADRMPPGAGLMERIQAIAQNVSDIAVKVDQILRHSLLLHSKVSEGRRDQCEAPSDPKFPDCSGKVEWMRARWTSDPCYAFFGVDGTECSFLIYLSEVEWFCPPLPWRNQTAAQRAPKPLPKVQAVFRSNLSHLLDLMGSGKESLIFMKKRTKRLTAQWALAAQRLAQKLGATQRDQKQILVHIGFLTEESGDVFSPRVLKGGPLGEMVQWADILTALYVLGHGLRVTVSLKELQSNLGVPPGRGSCPLTMPLPFDLIYTDYHGLQQMKRHMGLSFKKYRCRIRVIDTFGTEPAYNHEEYATLHGYRTNWGYWNLNPKQFMTMFPHTPDNSFMGFVSEELNETEKRLIKGGKASNMAVVYGKEASIWKLQGKEKFLGILNKYMEIHGTVYYESQRPPEVPAFVKNHGLLPQPEFQQLLRKAKLFIGFGFPYEGPAPLEAIANGCIFLQSRFSPPHSSLNHEFFRGKPTSREVFSQHPYAENFIGKPHVWTVDYNNSEEFEAAIKAIMRTQVDPYLPYEYTCEGMLERIHAYIQHQDFCRAPDPALPEAHAPQSPFVLAPNATHLEWARNTSLAPGAWPPAHALRAWLAVPGRACTDTCLDHGLICEPSFFPFLNSQDAFLKLQVPCDSTESEMNHLYPAFAQPGQECYLQKEPLLFSCAGSNTKYRRLCPCRDFRKGQVALCQGCL

The chains behind the UniProt entries cited, without tags or fusion partners. Where a name states a change or a piece, a line headed by the entry shows the natural chain unless it says otherwise.
UniProt P08254: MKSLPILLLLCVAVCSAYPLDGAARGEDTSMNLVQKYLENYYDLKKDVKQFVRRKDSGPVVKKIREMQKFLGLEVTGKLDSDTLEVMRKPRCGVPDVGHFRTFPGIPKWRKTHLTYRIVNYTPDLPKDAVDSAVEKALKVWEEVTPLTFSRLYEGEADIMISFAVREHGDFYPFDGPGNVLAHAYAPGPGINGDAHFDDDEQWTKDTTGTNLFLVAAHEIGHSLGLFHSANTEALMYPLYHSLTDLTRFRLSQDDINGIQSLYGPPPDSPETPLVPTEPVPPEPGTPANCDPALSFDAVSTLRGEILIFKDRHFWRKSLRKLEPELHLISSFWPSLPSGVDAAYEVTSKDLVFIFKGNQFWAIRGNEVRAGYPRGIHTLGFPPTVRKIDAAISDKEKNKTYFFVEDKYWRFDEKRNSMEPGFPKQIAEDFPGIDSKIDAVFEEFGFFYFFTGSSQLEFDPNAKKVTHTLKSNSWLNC

Target: Matrix metalloproteinase 3 (human (endogenous in OVCAR3CIS)) (UniProt P08254)
Experiment: affinity purification with mass spectrometry; extracellular MMP3: supernatants of serum-free OVCAR3CIS cells, untreated or cisplatin-treated, pre-cleared on protein A/G magnetic beads, anti-MMP3 antibody (Abcam) 10 ug/200 ug protein at 4 °C overnight, protein A/G magnetic beads (Pierce MS-compatible Magnetic IP Kit), eluate by LC-MS/MS

Row | binding | Binder
1 | binds | B1
2 | binds | B2
3 | binds | B3
